# B1: FHL-1: truncated form of FH comprising the first seven CCP domains, SEQ ID NO:2 (protein, listed as Homo sapiens)
# chain: MRLLAKIICLMLWAICVAEDCNELPPRRNTEILTGSWSDQTYPEGTQAIYKCRPGYRSLGNVIMVCRKGEWVALNPLRKCQKRPCGHPGDTPFGTFTLTGGNVFEYGVKAVYTCNEGYQLLGEINYRECDTDGWTNDIPICEVVKCLPVTAPENGKIVSSAMEPDREYHFGQAVRFVCNSGYKIEGDEEMHCSDDGFWSKEKPKCVEISCKSPDVINGSPISQKIIYKENERFQYKCNMGYEYSERGDAVCTESGWRPLPSCEEKSCDNPYIPNGDYSPLRIKHRTGDEITYQCRNGFYPATRGNTAKCTSTGWIPAPRCTLKPCDYPDIKHGGLYHENMRRPYFPVAVGKYYSYYCDEHFETPSGSYWDHIHCTQDGWSPAVPCLRKCYFPYLENGYNQNYGRKFVQGKSIDVACHPGYALPKAQTTVTCMENGWSPTPRCIRVSFTL
# B2: FHR1: Complement Factor H-related 1, SEQ ID NO:3 (protein)
# chain: MWLLVSVILISRISSVGGEATFCDFPKINHGILYDEEKYKPFSQVPTGEVFYYSCEYNFVSPSKSFWTRITCTEEGWSPTPKCLRLCFFPFVENGHSESSGQTHLEGDTVQIICNTGYRLQNNENNISCVERGWSTPPKCRSTDTSCVNPPTVQNAHILSRQMSKYPSGERVRYECRSPYEMFGDEEVMCLNGNWTEPPQCKDSTGKCGPPPPIDNGDITSFPLSVYAPASSVEYQCQNLYQLEGNKRITCRNGQWSEPPKCLHPCVISREIMENYNIALRWTAKQKLYLRTGESAEFVCKRGYRLSSRSHTLRTTCWDGKLEYPTCAKR
# B3: FHR2: Complement Factor H-related 2, SEQ ID NO:4 and 5 (protein, UniProt P36980 19-270, looked up)
# Complement factor H-related …: EAMFCDFPKINHGILYDEEKYKPFSQVPTGEVFYYSCEYNFVSPSKSFWTRITCAEEGWSPTPKCLRLCFFPFVENGHSESSGQTHLEGDTVQIICNTGYRLQNNENNISCVERGWSTPPKCRSTISAEKCGPPPPIDNGDITSFLLSVYAPGSSVEYQCQNLYQLEGNNQITCRNGQWSEPPKCLDPCVISQEIMEKYNIKLKWTNQQKLYSRTGDIVEFVCKSGYHPTKSHSFRAMCQNGKLVYPSCEEK
# B4: FHR3: Complement Factor H-related 3, SEQ ID NO:6 and 7 (protein, UniProt Q02985 19-330, looked up)
# Complement factor H-related …: QVKPCDFPDIKHGGLFHENMRRPYFPVAVGKYYSYYCDEHFETPSGSYWDYIHCTQNGWSPAVPCLRKCYFPYLENGYNQNYGRKFVQGNSTEVACHPGYGLPKAQTTVTCTEKGWSPTPRCIRVRTCSKSDIEIENGFISESSSIYILNKEIQYKCKPGYATADGNSSGSITCLQNGWSAQPICINSSEKCGPPPPISNGDTTSFLLKVYVPQSRVEYQCQPYYELQGSNYVTCSNGEWSEPPRCIHPCIITEENMNKNNIKLKGRSDRKYYAKTGDTIEFMCKLGYNANTSILSFQAVCREGIVEYPRCE
# B5: FHR4: Complement Factor H-related 4 (FHR4A, FHR4B), SEQ ID NO:8 and 9 (protein, UniProt Q92496 20-578, looked up)
# Complement factor H-related …: EVKPCDFPEIQHGGLYYKSLRRLYFPAAAGQSYSYYCDQNFVTPSGSYWDYIHCTQDGWSPTVPCLRTCSKSDVEIENGFISESSSIYILNEETQYNCKPGYATAEGNSSGSITCLQNGWSTQPICIKFCDMPVFENSRAKSNGMWFKLHDTLDYECYDGYESSYGNTTDSIVCGEDGWSHLPTCYNSSENCGPPPPISNGDTTSFPQKVYLPWSRVEYQCQSYYELQGSKYVTCSNGDWSEPPRCISMKPCEFPEIQHGHLYYENTRRPYFPVATGQSYSYYCDQNFVTPSGSYWDYIHCTQDGWLPTVPCLRTCSKSDIEIENGFISESSSIYILNKEIQYKCKPGYATADGNSSGSITCLQNGWSAQPICIKFCDMPVFENSRAKSNGMRFKLHDTLDYECYDGYEISYGNTTGSIVCGEDGWSHFPTCYNSSEKCGPPPPISNGDTTSFLLKVYVPQSRVEYQCQSYYELQGSNYVTCSNGEWSEPPRCIHPCIITEENMNKNNIQLKGKSDIKYYAKTGDTIEFMCKLGYNANTSVLSFQAVCREGIVEYPRCE
# B6: FHR5: Complement Factor H-related 5, SEQ ID NO:10 (protein)
# chain: MLLLFSVILISWVSTVGGEGTLCDFPKIHHGFLYDEEDYNPFSQVPTGEVFYYSCEYNFVSPSKSFWTRITCTEEGWSPTPKCLRMCSFPFVKNGHSESSGLIHLEGDTVQIICNTGYSLQNNEKNISCVERGWSTPPICSFTKGECHVPILEANVDAQPKKESYKVGDVLKFSCRKNLIRVGSDSVQCYQFGWSPNFPTCKGQVRSCGPPPQLSNGEVKEIRKEEYGHNEVVEYDCNPNFIINGPKKIQCVDGEWTTLPTCVEQVKTCGYIPELEYGYVQPSVPPYQHGVSVEVNCRNEYAMIGNNMITCINGIWTELPMCVATHQLKRCKIAGVNIKTLLKLSGKEFNHNSRIRYRCSDIFRYRHSVCINGKWNPEVDCTEKREQFCPPPPQIPNAQNMTTTVNYQDGEKVAVLCKENYLLPEAKEIVCKDGRWQSLPRCVESTAYCGPPPSINNGDTTSFPLSVYPPGSTVTYRCQSFYKLQGSVTVTCRNKQWSEPPRCLDPCVVSEENMNKNNIQLKWRNDGKLYAKTGDAVEFQCKFPHKAMISSPPFRAICQEGKFEYPICE
# B7: FI: Human Complement Factor I, UniProt P05156, SEQ ID NO:11 (protein)
# chain: MKLLHVFLLFLCFHLRFCKVTYTSQEDLVEKKCLAKKYTHLSCDKVFCQPWQRCIEGTCVCKLPYQCPKNGTAVCATNRRSFPTYCQQKSLECLHPGTKFLNNGTCTAEGKFSVSLKHGNTDSEGIVEVKLVDQDKTMFICKSSWSMREANVACLDLGFQQGADTQRRFKLSDLSINSTECLHVHCRGLETSLAECTFTKRRTMGYQDFADVVCYTQKADSPMDDFFQCVNGKYISQMKACDGINDCGDQSDELCCKACQGKGFHCKSGVCIPSQYQCNGEVDCITGEDEVGCAGFASVTQEETEILTADMDAERRRIKSLLPKLSCGVKNRMHIRRKRIVGGKRAQLGDLPWQVAIKDASGITCGGIYIGGCWILTAAHCLRASKTHRYQIWTTVVDWIHPDLKRIVIEYVDRIIFHENYNAGTYQNDIALIEMKKDGNKKDCELPRSIPACVPWSPYLFQPNDTCIVSGWGREKDNERVFSLQWGEVKLISNCSKFYGNRFYEKEMECAGTYDGSIDACKGDSGGPLVCMDANNVTYVWGVVSWGENCGKPEFPGVYTKVANYFDWISYHVGRPFISQYNV
# Assay: LC-SRM-MS quantification of FH, FHL-1 and FHR1-5 in plasma after GluC digestion
# Details: human subjects known not to have a complement-related disorder; derived from the mass spectrometry methods described herein
row,Molecule,Mean reference value in human plasma [nM]
1,B1,10.9
2,B2,33.9
3,B3,51.2
4,B4,20.6
5,B5,46.1
6,B6,29.2

# Assay: not given
# Details: human blood; subjects known not to have a complement-related disorder; cited from earlier work
row,Molecule,Reference value in human blood [µg/mL]
1,B5,≤ 5

# Same assay, conditions: human plasma; subjects known not to have a complement-related disorder; cited from earlier work
row,Molecule,Reference value in human plasma [µg/mL]
1,B3,15 to 50
2,B6,~1.5
3,B7,~35

# — patent US20230384322A1, “COMPLEMENTOME ASSAY” (Complement Therapeutics Limited, priority 2020, published 2023)
